Results taken from US20190086302A1, “COMPOSITION FOR PREPARING BIOLOGICAL MATERIAL HAVING EXCELLENT LIGHT TRANSMISSIVITY AND USE OF COMPOSITION” (RIKEN, priority 2016, published 2019).

What was measured:
pH of chemical solution = type: physicochemical
[1] = Absorbance of chemical solution at 400 nm (OD400); type: physicochemical; conditions: for 400 nm: Table 2, absorbance of chemical solution at 400 nm; for OD400: Table 3

Compound	pH (pH of chemical solution; Table 2, chemical solution)	pH (pH of chemical solution; Table 3)	400 nm [1]	OD400 [1]
C1CN=C2CCCN2C1 [#0587, 1,5-Diazabicyclo[4.3.0]-5-nonene]	12.6	12.6	0.049	0.049
Cc1cccc(N)n1 [#0370, 2-Amino-6-methylpyridine]	11.3	11.3	0.064	0.064
